# Data from PubChem BioAssay AID1487 (National Center for Advancing Translational Sciences (NCATS), 2009).
# In all, about 200,000 compounds went through this assay and about 25 (0.01%) were called active. These results got no clear call from the source, so the numbers are uncertain. The call rests on the fitted dose curve; in most records, active means well fitted inhibition curve with a large enough effect in the signal ratio, with a control signal flat (not every such curve was filed as active); inconclusive means small, poorly fitted or top-dose-only effect, or effect the other way, or a change in a side signal; inactive means flat fitted curve, though single readings scatter; the % refers to the signal ratio.
# Assay: qHTS Assay for Modulators of Lamin A Splicing
# Conditions: HeLa LMNA splicing GFP/RFP minigene ratio, 48 h
# Potency means the concentration at half of the fitted maximal effect.
row,SMILES,Potency
1,CN(CCCl)CCCl,inconclusive: 3.16 µM
